# Results deposited as PubChem BioAssay AID504764 (Drosophila RNAi Screening Center, 2011).
# Purpose: 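Knock-downs that raise or lower a Notch target reporter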 (primary screen)
# System: Drosophila Kc167 cells
# Knock-down reagent: long dsRNA against Drosophila genes
# Duration: about 5 days (4 days dsRNA, then 24 h after transfection)
# Conditions: transfection of constitutively active membrane-tethered Notch lacking the extracellular domain, read 24 h later
# Read-out: 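Light from a Notch-responsive E(spl)m3 luciferase reporter under active Notch, with control-promoter and no-Notch reporter wells to normalise; raw counts from paired wells a and b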
# Scale: induced reporter light, run 1, well a and induced reporter light, run 1, well b: higher = more light from the Notch target reporter with active Notch; control promoter light, run 1, well a and control promoter light, run 1, well b: higher = more light from the viral control promoter (cell number, transfection, viability); uninduced reporter light, run 1, well a: higher = more light from the Notch target reporter without active Notch
# Rule for the call: 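Wells with low control signal or poorly matching duplicates excluded; duplicates averaged; per source plate, z beyond ±2 for induced/control log2 ratio or beyond ±1.8 for induced/uninduced marks a hit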
# Calls: active = modifier hit (raised or lowered Notch signal); inactive = not a hit
# In all, the deposit lists about 22,000 reagents; shown is an unselected part of those that have a named target and a result. In the full data, 403 (1.9%) got an active call. 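Unnormalised raw counts per well; ratio z-scores behind the hit calls and whether each hit raises or lowers signal are not deposited.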 A number with no mark means an inactive call. A plus sign joins genes that one reagent is predicted to hit. Not given: the amount of reagent.
gene,dsRNA,"induced reporter light, run 1, well a","induced reporter light, run 1, well b","control promoter light, run 1, well a","control promoter light, run 1, well b","uninduced reporter light, run 1, well a"
Saysd1 (GeneID 43029),DRSC14664,1.53e5,1.32e5,1.92e5,2.14e5,12382
CG12374 (GeneID 36410),DRSC06143,86255,1.09e5,1.48e5,1.24e5,9045
CG42233 (GeneID 43754),DRSC14328,1.39e5,1.14e5,2.63e5,2.13e5,10090
CG42233 (GeneID 43754),DRSC15416,1.02e5,1.09e5,2.14e5,2.19e5,7625
Rhau (GeneID 35339),DRSC03200,1.46e5,1.56e5,1.39e5,1.30e5,11240
CG34330 (GeneID 2768869),DRSC20043,99975,87335,83795,1.31e5,11155
CG13978 (GeneID 43303),DRSC14720,1.10e5,97720,1.53e5,1.52e5,12525
CG33191 + Pif1B,DRSC12706,1.82e5,1.52e5,1.59e5,1.86e5,12025
CG12692 (GeneID 31372),DRSC17881,1.57e5,1.45e5,2.08e5,2.17e5,10250
CG10301 (GeneID 42797),DRSC14226,1.98e5,1.67e5,2.53e5,2.32e5,14010
Oli (GeneID 35066),DRSC02866,2.66e5,2.65e5,2.50e5,1.97e5,20105
CG13321 (GeneID 36430),DRSC06358,55575,49060,61110,67750,7005
LysD + LysB + LysC (retired record),DRSC21249,1.26e5,1.25e5,1.23e5,1.29e5,9260
CG33642 (GeneID 3771733),DRSC01325,1.53e5,1.04e5,1.63e5,1.43e5,9935
CG9737 (GeneID 43600),DRSC16550,1.63e5,1.36e5,1.79e5,1.75e5,11955
Hmt4-20 (GeneID 31015),DRSC18482,39555,52295,26125,31250,10670
CG11703 (GeneID 42307),DRSC14356,1.68e5,1.61e5,2.24e5,1.95e5,10955
Atac1 (GeneID 33977),DRSC03155,2.30e5,2.12e5,2.73e5,2.09e5,10730
Twdlbeta (GeneID 36265),DRSC07310,97820,1.04e5,1.21e5,1.24e5,8625
CG2104 (GeneID 40702),DRSC12304,1.57e5,1.65e5,1.37e5,1.25e5,8890

Laid out differently: 3 of the entries above
| gene | dsRNA | induced reporter light, run 1, well a | induced reporter light, run 1, well b | control promoter light, run 1, well a | control promoter light, run 1, well b | uninduced reporter light, run 1, well a |
| --- | --- | --- | --- | --- | --- | --- |
| CG34330 (GeneID 2768869) | DRSC20043 | 99975 | 87335 | 83795 | 1.31e5 | 11155 |
| CG13978 (GeneID 43303) | DRSC14720 | 1.10e5 | 97720 | 1.53e5 | 1.52e5 | 12525 |
| CG33191 + Pif1B | DRSC12706 | 1.82e5 | 1.52e5 | 1.59e5 | 1.86e5 | 12025 |
